Publication doi:10.1101/2021.10.05.463238 (bioRxiv, 2021)
No constants are given. Whether binding was seen depends on the method and setting. Tags and fused reporters may be left off the sequences shown. Values belong to the binder of their own block, whether it stands above or below them.

Experiments:
[1] = target: SPR2(1-500)-GFP (Arabidopsis thaliana) (UniProt Q9T041); experiment: native gel or EMSA
[2] = target: SPR2 (1-400)-GFP (Arabidopsis thaliana) (UniProt Q9T041); experiment: native gel or EMSA

binding [1]: no binding (tested: 2 μM)
B1: SPR2(1-500)-GFP (domain or fragment, UniProt Q9T041 1-500)
chain: MSTPTTSGSAAKPTRPARSSSLATRSCSNSGSLTSFQAMVELKQKILTSISKLADRDTYQIAVEDLEKTIQSLTPETLPMFLNCLYDSCSDPKPAVKKECLHLLSYVCSLHCDSTAAHLTKIIAQIVKRLKDSDSGVRDACRDTIGALSGIYLKGKEEGTNTGSASLAVGLFVKPLFEAMGEQNKVVQSGASMCMARMVESAASPPVTSFQKLCPRICKLLSNSSFLAKASLLPVVSSLSQVGAIAPQSLESLLESIHDCLGSTDWVTRKAAAETLTALASHSSGLIKEKTDSTITVLETCRFDKIKPVRESVTEALQLWKKISGKYVDGASDDSKLSASEQLGSEKNGEKRSNLADLMKKEASDGSTLSPDSASKGKGCFPEKAVGLLKKKAPVLSDKDFNPEFFQRLERRQSVEVVVPRRCKNNDEEESGLDDLNAMGSSNRLKNTQADDKQVKGRFDGNGSQARTSGDDKAGVVNGKETPGHHAPVSNTDNQSEGSF

binding [2]: no binding (tested: 2 μM)
B2: SPR2 (1-400)-GFP (domain or fragment, UniProt Q9T041 1-400)
chain: MSTPTTSGSAAKPTRPARSSSLATRSCSNSGSLTSFQAMVELKQKILTSISKLADRDTYQIAVEDLEKTIQSLTPETLPMFLNCLYDSCSDPKPAVKKECLHLLSYVCSLHCDSTAAHLTKIIAQIVKRLKDSDSGVRDACRDTIGALSGIYLKGKEEGTNTGSASLAVGLFVKPLFEAMGEQNKVVQSGASMCMARMVESAASPPVTSFQKLCPRICKLLSNSSFLAKASLLPVVSSLSQVGAIAPQSLESLLESIHDCLGSTDWVTRKAAAETLTALASHSSGLIKEKTDSTITVLETCRFDKIKPVRESVTEALQLWKKISGKYVDGASDDSKLSASEQLGSEKNGEKRSNLADLMKKEASDGSTLSPDSASKGKGCFPEKAVGLLKKKAPVLSDKD
